According to PubChem BioAssay AID1347426 (Functional Genomics Laboratory (NCATS/FGL), 2020):
The campaign covered roughly 31,000 sequences. About 1,400 (4.5%) were called active.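 How the source made its calls: active means median seed-adjusted z-score above 1 or below -1; inactive means the rest.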 The list shows a part of the results.

Assay: Novel Modifiers of Survival Motor Neuron (SMN) Protein: Gene Identification via Genome-wide siRNA Screen;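 further: luminescence tracks full-length SMN protein made from the SMN2 reporter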
Details: HEK293T SMN2-luciferase reporter, siRNA knockdown, 72 h; actives lie on both sides
Summary of the method: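 Steps: spot 1 pmol siRNA, add Lipofectamine RNAiMax in serum-free DMEM, seed HEK293T SMN2–luciferase reporter cells; incubate 72 h at 37 °C; add ONE-Glo; normalize luminescence to control siRNA, log10, MAD. Candidates: |MAD| > 1.0.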

Sequence	median seed-adjusted z-score
GGAGUAACAAGACCAAUGATT against F13A1	inactive: -0.508
GCCUGUCCUUCUCCAUUGATT against ISX	active: 1.99
GAACAACAGCUCAGAACAATT against RARA	inactive: -0.0195
GUACUACACUGAGGACCAATT against HABP2	inactive: -0.141
GCCGGAUUCUGAAAGUGUATT against OSBPL1A	inactive: 0.0845
GGUACGCUGUGGAAUGAGATT against STK16	inactive: 0.113
GGUUUUCACUCAAGCAUCATT against ZBTB32	inactive: 0.458
CAUCUACACUUAUUACACUTT against KCNT2	inactive: 0.449
GCAUCUACAAGCUGCUAUATT against BEST1	inactive: -0.322
CUCAUAAUCUGCUAACGGATT against QTRT1	inactive: 0.0708
GAAGGACGGAGUACUAAUATT against TP53BP1	inactive: -0.166
GAGCUUGACUCGAGUCUUATT against GSTA5	inactive: 0.523
GGAUAUAACGAGAAUGUCUTT against MED27	active: -1.62
GCCCAUACAAAAAUCCUUATT against ZNF354B	inactive: 0.393
AGUGUACAAUCGAUAAAAATT against ESR2	active: -1.1
GCAAUGACCUGGAGAGACATT against SPNS3	inactive: -0.00533
CCGCAGUGAUUAUGACAUATT against PRSS12	inactive: 0.119
CCAUUACCUUGUGAACGGATT against ADAM18	inactive: -0.913
CCUCAUUCGUGAUAGUGAATT against NCK1	inactive: -0.0795
CCAAGGGCACGGGAAUUAATT against PON2	inactive: 0
CGUACUUCCAGUCAAUUAATT against EXT2	inactive: -0.127
GGACUACGGUUGUCAGAAATT against TRPC1	inactive: -0.196
GGAUCGUUUAUGAACCUAATT against SLITRK6	inactive: -0.136
GCCCUGUACUGGUUCAACUTT against SLC25A39	inactive: -0.111
GCAACCCACCAAUAACUAATT against ADAM29	inactive: 0.904
GGUCCAGGUUAAAACAGAATT against HDAC9	inactive: -0.135
GCACCAUUGUGACCUACCATT against HYOU1	inactive: 0.0557

Sequence	median seed-adjusted z-score
CAAUGCUAUUUCAAAGCAATT against ZCCHC8	inactive: 0.356
GCCUUAAACCUUUUGAAAATT against SERPINB6	inactive: 0.0155
GGACUUUAUAGACAAACUATT against PSKH2	inactive: 0.0439
GCGAAAAGCUGGAACGACATT against RACGAP1	inactive: 0
AGAAUAAAGCGAUUCCACATT against LCN6	inactive: 0.584
GCAUCCUCCUUCUGGACUATT against S1PR2	inactive: -0.964
CCACGUCCUUUGACAAGUUTT against PPP1R3C	inactive: 0
GUUCAGCCGUGGAAAGAAATT against WFDC6	inactive: 0.0443
GGUUAGAAGAUGGUCGUGATT against ACOX2	inactive: -0.545
ACACCUACCUGGUCCUCAUTT against MC3R	inactive: 0.424
AGAUUUCUACCACUCCAAATT against CDKN1A	inactive: 0.158
GCUGCGCACAAGUAAGGAATT against AP2A2	inactive: 0.158
GGAGAGAAGUUUUCAACUUTT against USP22	inactive: 0
GUCCCGCUAUGACUACUUUTT against GRM2	inactive: -0.664
GUAUUUGUAUCUAUGGAAATT against GCNT2	inactive: -0.0107
GCCUGUUAAUCUGCGUGAATT against USP9X	inactive: -0.443
GGGUUGCAAUGGUUCCACATT against LIN9	inactive: 0
UCACUGUCCCAGACACCAATT against EPO	inactive: 0.148
GCACUGUGCUUAAGCUGGATT against PKN1	inactive: -0.753
GGUGCAUCAUUUUGAGAUUTT against ITIH1	inactive: 0.0403
CAUGAUAUCUGGACCCAAATT against SSX3	inactive: 0
GCAUGAUCUUAGUCAAGGATT against PROSC	inactive: 0.173
GUGGUAUCGUGAGUCUAAATT against MTTP	inactive: 0
AGACAAUCAGGGAAUUAAATT against THAP6	inactive: 0.368
GAAUAGACUUGCUAUCAAATT against AK7	inactive: -0.702
CAGUGUACCUGUGAAGACATT against GPR110	inactive: 0.0158
CGUCCAUGUUUAUCUACAATT against ENTPD2	inactive: 0.0319

Some of the entries so far, with bars between the fields:
Sequence | median seed-adjusted z-score
GAACAACAGCUCAGAACAATT against RARA | inactive: -0.0195
GCGAAAAGCUGGAACGACATT against RACGAP1 | inactive: 0
GUAUUUGUAUCUAUGGAAATT against GCNT2 | inactive: -0.0107
GGUGCAUCAUUUUGAGAUUTT against ITIH1 | inactive: 0.0403
